# Experimental data taken from patent US12673010B2, “Dental ceramic coloring liquid having masking property” (Kuraray Noritake Dental Inc., priority 2020, dated 2026).
# Some results were stated once for a whole list of compounds, not compound by compound. At least one compound was matched to its structure with a doubt left.
# Assay: Evaluation of solubility of organosilicon compound in water
# Format: physicochemical
# Details: water pH 7, 25° C., stirred 1 hour, visual
row,SMILES,solubility in water
1,"CO[Si](C)(CCCNCCN)OC [KBM-602, N-2-(Aminoethyl)-3-aminopropylmethyldimethoxysilane]",A (Solubility in water is 5 mass % or more at 25° C.)
2,"CO[Si](CCCN)(OC)OC [KBM-903, 3-Aminopropyltrimethoxysilane]",A (Solubility in water is 5 mass % or more at 25° C.)
